Reference: US20240279302A1, “OLFACTORY RECEPTOR EXPRESSING METHOD AND RESPONSE MEASUREMENT METHOD” (Kao Corporation, priority 2021, published 2024)

B1: consensus OR5AN1: consensus olfactory receptor polypeptide (protein)
chain: MIGGGNITEITYFILLGFSDFPRIIAVLFVIFLVIYITTLTWNLSLIVLIRMDSHLHTPMYFFLSNLSFIDICYVTSTVPKMLSNFFQEQQTITFVGCIVQYFIFSTMGLSESCLMTAMAYDRYAAICNPLLYSSIMSPTLCVWMVLGSYMAGLTASLSQLCALLQLHFCGPNVIRHFFCDMPQLLILSCTDTFFVQVLTAILTMFFGIANALVIMISYGYIVISIMKITSAKGRSKAFNTCASHLTAVSLFYTSGIFVYLSSSSGGSSSFDRFASVFYTVVIPMLNPLIYSLRNKEIKDALKRLQKRKCC
modifications: OR5AN1 consensus-c
notes: consensus olfactory receptor polypeptide
B2: consensus OR4S2 (b): consensus olfactory receptor polypeptide (protein)
chain: MEKINNVTEFIFWGLSQSPEVQRVCFVVFLFFYIAIVLGNLLIVLTVCLSNSLKSPMYFFLSFLSFVEICYSSVTAPKMIVDLLAKDKTISYVGCMLQLFFVHFFGCTEIFLLTVMAYDRYVAICKPLHYMTIMNRQTCNKLVLGTWVGGFLHSIIQVLLVVQLPFCGPNVIDHYFCDLHPVLKLACTDTFIVGVVVTANSGTIALGSFVILLISYSIILVSLRKQSAEGRRKALSTCGSHITVVILFFGPCIFMYMRPSTTFSEDKMVAVFYTIITPMLNPLIYTLRNAEVKNAMKKLWGRNVFLEAKGK
modifications: OR4S2 consensus-b
notes: as for B1
B3: original M71: typical mouse olfactory receptor, SEQ ID NO: 483 (protein, listed as Mus musculus)
chain: MTAENQSTVTEFILGGLTNRPELQLPLFLLFLGIYVVTMVGNLGMITLIGLNSQLHTPMYFFLSNLSLVDLCYSSVITPKMLINFVSQRNLISYVGCMSQLYFFLVFVIAECYMLTVMAYDRYVAICQPLLYNIIMSPALCSLLVAFVYAVGLIGSAIETGLMLKLNYCEDLISHYFCDILPLMKLSCSSTYDVEMAVFFLAGFDIIVTSLTVLISYAFILSSILRISSNEGRSKAFSTCSSHFAAVGLFYGSTAFMYLKPSTASSLAQENVASVFYTTVIPMFNPLIYSLRNKEVKTALDKTLRRKVF
B4: consensus OR7A17 (a): consensus olfactory receptor polypeptide (protein)
chain: MEPENDTGISEFLLLGLSEEPELQPFLFGLFLSMYLVTVLGNLLIILATISDSHLHTPMYFFLSNLSFADICFISTTVPKMLINIQTQSRVITYAGCITQMCFFVLFGGLDSLLLAVMAYDRFVAICHPLHYTVIMNPRLCGLLVLASWMIAALNSLSQSLMVLWLSFCTDLEIPHFFCELNQVIHLACSDTFLNDMGMYFAAGLLAGGPLAGILYSYSKIVSSIRAISSAQGKYKAFSTCASHLSVVSLFCCTGLGVYLTSAATHNSHTSATASVMYTVATPMLNPFIYSLRNKDIKRALKMSFRGKQ
modifications: OR7A17 consensus-a
notes: as for B1
B5: consensus OR2A25 (b): consensus olfactory receptor polypeptide (protein)
chain: MGGNQTSITEFLLLGFPVGPRIQMLLFGLFSLFYVFTLLGNGTILGLISLDSRLHTPMYFFLSHLAVVDIAYACNTVPQMLVNLLHPAKPISFAGCMTQTFLFLSFAHTECLLLVVMSYDRYVAICHPLRYSAIMTWRVCITLALTSWTLGVLLALIHLVLLLPLPFCRPQKINHFFCEIMAVLKLACADTHINEVMVLAGAISVLVGPLSSIVVSYMCILCAILKIQSGEGQRKAFSTCSSHLCVVGLFYGTAIIMYVGPQYGNPKEQKKYLLLFHSLFNPMLNPLIYSLRNSEVKNTLKRMLEKERAL
modifications: OR2A25 consensus-b
notes: as for B1
B6: consensus M71: consensus olfactory receptor polypeptide of mouse olfactory receptor M71 (protein)
chain: MAAENHSTVTEFILGGLTNRPELQLPLFLLFLGIYVVTMVGNLGMITLIGLNSQLHTPMYFFLSNLSLVDLCYSSVITPKMLVNFVSQKNLISYVGCMSQLYFFLVFVIAECYMLTVMAYDRYVAICHPLLYNIIMSHALCSLLVAFVYAMGLIGSTIETGLMLKLNYCEDLISHYFCDILPLMKLSCSSTYDVEMAVFFLAGFNIIVTSLTVLISYAFILSSILRISSTEGRSKAFSTCSSHLAAVGLFYGSTAFMYLKPSTASSLAQENVASVFYTTVIPMLNPLIYSLRNKEVKAALQKTLRRKLF
modifications: M71 consensus-c
B7: consensus OR7D4 (c): consensus olfactory receptor polypeptide (protein)
chain: MEAENHTEVSEFLLLGLSEDPELQPLLFGLFLSMYLVTVLGNLLIILAISSDSHLHTPMYFFLSNLSFVDICFISTTVPKMLVNIQAQSKDISYMGCLTQVYFFMIFAGMDNFLLTVMAYDRFVAICHPLHYTVIMNPRLCGLLVLASWFIIFWVSLVHILLMKRLTFCTGTEIPHFFCELAQVLKVACSDTLINNIVLYVATALLGVFPLTGILFSYSQIVSSLMRMSSTKGKYKAFSTCGSHLSVVSLFYGTGLGVYLSSAVTHSSQSSSIASVMYTVVTPMLNPFIYSLRNKDVKGALGRLLSRAASCP
modifications: OR7D4 consensus-c
notes: as for B1

System: HEK293 cell membranes
Assay: Measurement of olfactory receptor protein level on cell membrane (flow cytometry)
Type: cell-based, human
Settings: for membrane expression level in comparison with the original olfactory receptor: consensus design, HEK293 cells; for membrane expression level (Cell surface expression (%)): mouse olfactory receptor M71 in HEK293 cells, 24 hours after transfection, mean±SEM, n=3

Molecule	membrane expression level in comparison with the original olfactory receptor	membrane expression level (Cell surface expression (%)) [%]
B1	not found to increase its membrane expression level	–
B2	no increase in membrane expression level	–
B3	–	0.78±0.07
B4	no increase in membrane expression level	–
B5	slightly increased	–
B6	–	3.20±0.19
B7	slightly increased	–
